The list does not hold the whole screen: it gathers tests that were run many times, whatever their T/C, doses with no T/C, and many T/C values between a quarter and a half above the control. Other doses and runs of a compound stand elsewhere. T/C is the treated group as % of the vehicle group. Where survival is the endpoint, this PubChem deposit counts one and a half times the control or more as active, and values a quarter to a half above the control carry no call in these data; other NCI protocols may use other cut-offs. Schedule codes are those of the source, read here as Q, the interval in days (D) or hours (H), X, the number of doses. Some T/C values carry the count of animals alive at the toxicity check (mostly the fifth day); without a count, all were alive then. Some entries hold several experiments; the results are listed from low to high. Marks such as (2×) count equal records among those shown. Some schedules carry Z or #; the key to these is not given.
Test system: CD2F1 mice, L1210 leukemia ip, survival T/C
Test: NCI In Vivo Anticancer Drug Screen. Data for tumor model L1210 Leukemia (intraperitoneal) in CD2F1 (CDF1) mice
Details: T/C endpoint: mean survival time, higher T/C = longer survival
Procedure, shortened: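 Ratio T/C, where T is the treated-group value and C the vehicle-dosed control value, from mice implanted with a transplantable tumor.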

SMILES: O=P1(N(CCCl)CCCl)NCCCO1 (centres undefined)
- T/C (dose: 12.5 mg/kg/injection, schedule: Q01DX009 (ip), vehicle: water): 101, 108, 111, 112, 114 (2×), 115 (3×), 116, 118 (2×), 124 (3×), 126, 132 % of control
- T/C (dose: 20.0 mg/kg/injection, schedule: Q01DX007 (ip), vehicle: saline): 133 % of control
- T/C (dose: 20.0 mg/kg/injection, schedule: Q01DX009 (ip), vehicle: saline): 126 and 138 % of control
- T/C (dose: 25.0 mg/kg/injection, schedule: Q01DX001 (ip), vehicle: saline, evaluated on day 5): 104 and 107 % of control
- T/C (dose: 25.0 mg/kg/injection, schedule: Q01DX001 (ip), vehicle: saline, evaluated on day 7): 113 % of control
- T/C (dose: 25.0 mg/kg/injection, schedule: Q01DX001 (ip), vehicle: saline, evaluated on day 35): 102 % of control
- T/C (dose: 25.0 mg/kg/injection, schedule: Q01DX001 (ip), vehicle: saline, evaluated on day 40): 113 % of control
- T/C (dose: 25.0 mg/kg/injection, schedule: Q01DX001 (ip), vehicle: saline, evaluated on day 60): 104 and 107 % of control
- T/C (dose: 25.0 mg/kg/injection, schedule: Q01DX001 (ip), vehicle: water, evaluated on day 5): 114 % of control
- T/C (dose: 25.0 mg/kg/injection, schedule: Q01DX001 (ip), vehicle: water, evaluated on day 30): 100 and 110 % of control
- T/C (dose: 25.0 mg/kg/injection, schedule: Q01DX001 (ip), vehicle: water, evaluated on day 45): 114 % of control
- T/C (dose: 25.0 mg/kg/injection, schedule: Q01DX005 (ip), vehicle: water): 119, 120, 130, 143 % of control
- T/C (dose: 25.0 mg/kg/injection, schedule: Q01DX009 (ip), vehicle: saline): 125 and 141 % of control
- T/C (dose: 25.0 mg/kg/injection, schedule: Q01DX009 (ip), vehicle: water): 115, 119, 124 (2×), 128, 129, 131, 132, 133, 134, 136 (2×), 138, 141, 146, 149 % of control (2×)
- T/C (dose: 31.25 mg/kg/injection, schedule: Q01DX001 (ip), vehicle: water): 111, 112 (2×), 113, 114, 117, 118, 125 % of control (2×)
- T/C (dose: 37.5 mg/kg/injection, schedule: Q01DX001 (ip), vehicle: saline): 103, 115, 118, 126, 150, 270 % of control
- T/C (dose: 40.0 mg/kg/injection, schedule: Q01DX009 (ip), vehicle: saline): 130 and 149 % of control
- T/C (dose: 40.0 mg/kg/injection, schedule: Q04DX003 (ip), vehicle: saline): 141 % of control
- T/C (dose: 50.0 mg/kg/injection, schedule: Q01DX001 (ip), vehicle: DMSO): 128 and 136 % of control
- T/C (dose: 50.0 mg/kg/injection, schedule: Q01DX001 (ip), vehicle: saline, evaluated on day 5): 114, 118, 143 % of control
- T/C (dose: 50.0 mg/kg/injection, schedule: Q01DX001 (ip), vehicle: saline, evaluated on day 7): 125 % of control
- T/C (dose: 50.0 mg/kg/injection, schedule: Q01DX001 (ip), vehicle: saline, evaluated on day 30): 107, 113, 117 [5 of 6 alive], 120 (2×), 123, 126 % of control
- T/C (dose: 50.0 mg/kg/injection, schedule: Q01DX001 (ip), vehicle: saline, evaluated on day 35): 110 and 143 % of control
- T/C (dose: 50.0 mg/kg/injection, schedule: Q01DX001 (ip), vehicle: saline, evaluated on day 40): 123 and 125 % of control
- T/C (dose: 50.0 mg/kg/injection, schedule: Q01DX001 (ip), vehicle: saline, evaluated on day 60): 114, 115, 118 % of control (2×)
- T/C (dose: 50.0 mg/kg/injection, schedule: Q01DX001 (ip), vehicle: saline, evaluated on day 90): 100, 110 (2×), 114, 115, 116 % of control (2×)
- T/C (dose: 50.0 mg/kg/injection, schedule: Q01DX001 (ip), vehicle: water, evaluated on day 5): 130 % of control
- T/C (dose: 50.0 mg/kg/injection, schedule: Q01DX001 (ip), vehicle: water, evaluated on day 30): 112, 115, 116, 117, 118 (2×), 123, 125, 130, 133, 141, 229 % of control
- T/C (dose: 50.0 mg/kg/injection, schedule: Q01DX001 (ip), vehicle: water, evaluated on day 35): 124 % of control
- T/C (dose: 50.0 mg/kg/injection, schedule: Q01DX001 (ip), vehicle: water, evaluated on day 45): 130 % of control
- T/C (dose: 50.0 mg/kg/injection, schedule: Q01DX005 (ip), vehicle: water): 143, 152, 166, 175 % of control
- T/C (dose: 50.0 mg/kg/injection, schedule: Q01DX009 (ip), vehicle: water): 95, 140, 148, 149, 152, 158, 169, 170, 171, 173, 174, 178 (2×), 181, 185, 190, 196 % of control
- T/C (dose: 50.0 mg/kg/injection, schedule: Q04DX003 (ip), vehicle: saline): 130 % of control
- T/C (dose: 50.0 mg/kg/injection, schedule: Q## X001 (ip), vehicle: saline): 126 % of control
- T/C (dose: 60.0 mg/kg/injection, schedule: Q04DX003 (ip), vehicle: water): 145 % of control
- T/C (dose: 60.0 mg/kg/injection, schedule: Q12HX003 (ip), vehicle: saline): 130 % of control
- T/C (dose: 62.5 mg/kg/injection, schedule: Q01DX001 (ip), vehicle: DMSO, evaluated on day 20): 121 % of control
- T/C (dose: 62.5 mg/kg/injection, schedule: Q01DX001 (ip), vehicle: DMSO, evaluated on day 25): 113 and 114 % of control
- T/C (dose: 62.5 mg/kg/injection, schedule: Q01DX001 (ip), vehicle: DMSO, evaluated on day 40): 125 % of control
- T/C (dose: 62.5 mg/kg/injection, schedule: Q01DX001 (ip), vehicle: Klucel (hydroxypropylcellulose) (HPC)): 134 % of control
- T/C (dose: 62.5 mg/kg/injection, schedule: Q01DX001 (ip), vehicle: saline with Tween-80): 128 % of control
- T/C (dose: 62.5 mg/kg/injection, schedule: Q01DX001 (ip), vehicle: saline, evaluated on day 30): 116, 121, 126, 130, 133 (2×), 134, 135, 136 % of control
- T/C (dose: 62.5 mg/kg/injection, schedule: Q01DX001 (ip), vehicle: saline, evaluated on day 35): 108, 115, 125, 140 % of control
- T/C (dose: 62.5 mg/kg/injection, schedule: Q01DX001 (ip), vehicle: saline, evaluated on day 40): 97 % of control
- T/C (dose: 62.5 mg/kg/injection, schedule: Q01DX001 (ip), vehicle: saline, evaluated on day 45): 116, 119, 142 % of control
- T/C (dose: 62.5 mg/kg/injection, schedule: Q01DX001 (ip), vehicle: saline, evaluated on day 60): 117 % of control
- T/C (dose: 62.5 mg/kg/injection, schedule: Q01DX001 (ip), vehicle: water, evaluated on day 30): 97, 110, 119, 120, 121 (3×), 122 (2×), 123 (3×), 124, 126, 127 (6×), 128, 129, 130 (2×), 131, 132 (3×), 134 (2×), 135, 136, 137 (2×), 138, 139, 142, 144 (2×), 145, 150, 151, 172 % of control
- T/C (dose: 62.5 mg/kg/injection, schedule: Q01DX001 (ip), vehicle: water, evaluated on day 35): 112 and 160 % of control
- T/C (dose: 62.5 mg/kg/injection, schedule: Q01DX001 (ip), vehicle: water, evaluated on day 40): 125 and 128 % of control
- T/C (dose: 62.5 mg/kg/injection, schedule: Q01DX001 (ip), vehicle: water, evaluated on day 45): 121 and 135 % of control
- T/C (dose: 62.5 mg/kg/injection, schedule: Q01DX001 (ip), vehicle: water, evaluated on day 60): 121 % of control
- T/C (dose: 64.8 mg/kg/injection, schedule: Q01DX001 (ip), vehicle: water): 142 % of control
- T/C (dose: 75.0 mg/kg/injection, schedule: Q01DX001 (ip), vehicle: saline, evaluated on day 5): 128 % of control
- T/C (dose: 75.0 mg/kg/injection, schedule: Q01DX001 (ip), vehicle: saline, evaluated on day 30): 124, 128, 132, 137, 146, 270 % of control
- T/C (dose: 80.0 mg/kg/injection, schedule: Q01DX007 (ip), vehicle: saline): 138 % of control
- T/C (dose: 90.0 mg/kg/injection, schedule: Q01DX001 (ip), vehicle: saline): 139 % of control
- T/C (dose: 100.0 mg/kg/injection, schedule: Q01DX001 (ip), vehicle: DMSO, evaluated on day 30): 141 % of control
- T/C (dose: 100.0 mg/kg/injection, schedule: Q01DX001 (ip), vehicle: DMSO, evaluated on day 60): 148 % of control
- T/C (dose: 100.0 mg/kg/injection, schedule: Q01DX001 (ip), vehicle: Klucel (hydroxypropylcellulose) (HPC)): 136 and 141 % of control
